Test [1] concerns the target LRP2 CR89 (UniProt P98164). As to the kind of experiment: binding titration on LRP2 CR89, absorbance against nM of ligand, fitted with a single binding site.
Test [2] concerns the target LRP1 CR3-5 (UniProt Q07954). As to the kind of experiment: binding titration on LRP1 CR3-5, absorbance against nM of ligand, fitted with a single binding site.
For test [3], the target named is LRP2 CR89 (UniProt P98164). The test is described as follows: binding titration on LRP2 CR89, absorbance against nM of ligand.

Sequences of proteins named here, by UniProt entry; tags and fusion partners are left off. A change or cut given only in a name is not applied to a line headed by its entry. Residues count along the entry.
UniProt P98164, residues 1025-1102: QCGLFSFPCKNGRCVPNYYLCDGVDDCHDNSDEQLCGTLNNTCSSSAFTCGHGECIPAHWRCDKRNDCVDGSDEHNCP
UniProt Q07954, residues 852-973: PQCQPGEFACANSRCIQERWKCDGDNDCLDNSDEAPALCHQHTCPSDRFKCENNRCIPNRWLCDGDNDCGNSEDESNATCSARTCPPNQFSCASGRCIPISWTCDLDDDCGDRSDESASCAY
UniProt P30533: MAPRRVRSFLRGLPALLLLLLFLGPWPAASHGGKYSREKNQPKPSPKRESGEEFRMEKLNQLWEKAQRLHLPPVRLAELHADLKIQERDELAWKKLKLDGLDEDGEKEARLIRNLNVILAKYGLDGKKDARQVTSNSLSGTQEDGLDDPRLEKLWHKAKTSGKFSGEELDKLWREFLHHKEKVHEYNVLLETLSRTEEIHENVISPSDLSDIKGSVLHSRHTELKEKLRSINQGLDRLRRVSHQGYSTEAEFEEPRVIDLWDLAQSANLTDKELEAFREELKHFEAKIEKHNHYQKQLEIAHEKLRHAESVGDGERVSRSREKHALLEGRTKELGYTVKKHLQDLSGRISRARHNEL

No constants are given. Whether binding was seen depends on the method and setting. Some results given as binding are weak or reduced against the parent protein; the word gives no strength.

On to “MegaRAP1 d3 Y249H (from UniProt P30533 234-357) (ligand)”, for which, in test [1], the binding entry is recorded as “binds”.

Turning to “RAP d3 (from UniProt P30533 234-357) (ligand)”, the binding entry in test [2] is “binds”.

Consider “RAP d3 E217K (from UniProt P30533 234-357) (ligand)”, for which the binding entry in test [2] is on record as “binds”.

Consider “RAP d3 E251K (from UniProt P30533 234-357) (ligand)”, for which the binding result in test [2] is recorded as “binds”.

As for “RAP d3 E251K, K256A, K270E (from UniProt P30533 234-357) (ligand)”, the binding result in test [1] is recorded as “binds”.

With “RAP d3 E251K, K270E (from UniProt P30533 234-357) (ligand)”, the binding result in test [3] was “no binding (tested: 100 nM)”.

Consider “RAP d3 H249Y (from UniProt P30533 234-357) (ligand)”, for which the binding result in test [2] is “binds”.

The record behind these values is US20120251444A1.
